Test results from PubChem BioAssay AID1487 (National Center for Advancing Translational Sciences (NCATS), 2009).
The list shows a part of the results. Shown are side measurements of this screen, not its main read-out; they come without a call. Compounds called inactive in the main read-out are mostly missing here. Words in brackets tell the shape of the fitted curve; partial curves, single points and poor fits give uncertain potencies.

Assay: qHTS Assay for Modulators of Lamin A Splicing
Details: HeLa LMNA splicing GFP/RFP minigene ratio, 48 h
Outline: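 Read-out is the ratio of GFP to DsRed2 object intensity, acquired by 488 nm laser-scanning cytometry on HeLa lamin A-EGFP minigene reporter cells. Compound incubation 48 hrs at 37 °C in Opti-MEM with 2% FBS; DMSO 0.5% final.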

[1] = measured here: GFP splicing reporter channel
[2] = measured here: RFP viability control channel

Compound: Cn1cc(CCCC(=O)NCc2ccc(F)cc2)c2ccccc21
- AC50 [1]: 1 µM [rising, full curve, poor fit]
- AC50 [2]: 0.178 µM [rising, full curve, poor fit]

Compound: COc1ccc(-c2nc(NC(=O)Cn3ccc(C(F)(F)F)n3)sc2C)cc1
- AC50 [2]: 15.8 µM [rising, single point]

Compound: CCOC(=O)c1ccc(NC(=O)c2noc3c2CCCC3)cc1
- AC50 [2]: 0.00355 µM [falling, full curve, poor fit]

Compound: Cc1cc(C)c(S(=O)(=O)N(CC(=O)N2CCCC2)C2CCCCC2)c(C)c1
- AC50 [1]: 3.98 µM [rising, full curve, poor fit]
- AC50 [2]: 12.6 µM [rising, partial curve]

Compound: CC(NCCC(c1ccccc1)c1ccccc1)c1ccccc1 (stereo not drawn)
- AC50 [1]: 31.6 µM [rising, single point]

Compound: COc1cc(CNn2c(C)n[nH]c2=S)cc(Cl)c1OCc1ccc(F)cc1
- AC50 [2]: 35.5 µM [rising, single point]

Compound: Cc1cc(N2CCN(C)CC2)nc2ccc(NC(=O)Nc3ccc(F)cc3)cc12
- AC50 [1]: 25.1 µM [falling, single point]

Compound: N#CCC(CNc1ncc(C(F)(F)F)cc1Cl)OC(=O)c1ccc(Cl)cc1Cl (stereo not drawn)
- AC50 [2]: 20 µM [rising, partial curve, poor fit]

Compound: CC(=O)Nc1ccccc1OCC(=O)N(Cc1ccccc1)C(C)C
- AC50 [2]: 10 µM [rising, partial curve]

Compound: COc1ccccc1NC(=O)c1ccc(NC(=O)COC(=O)C2(C)CC2(Cl)Cl)cc1 (stereo not drawn)
- AC50 [2]: 14.1 µM [rising, single point]

Compound: O=C(O)C1=NOC(CNC(=O)c2ccccc2Cl)C1 (stereo not drawn)
- AC50 [1]: 0.112 µM [rising, full curve, poor fit]
- AC50 [2]: 0.158 µM [rising, full curve, poor fit]

Compound: CCCc1cnc2c(c1SCC(=O)Nc1ccccc1F)c(=O)n(C)c(=O)n2C
- AC50 [2]: 6.31 µM [falling, partial curve, poor fit]

Compound: CCOC(=O)C1(CCCc2ccccc2)CCN(Cc2cnc(C)s2)CC1
- AC50 [1]: 0.501 µM [falling, full curve, poor fit]

Compound: COc1ccc(NC(=O)CSC2=Nc3ccccc3C3=NC(CC(=O)NCc4ccc5c(c4)OCO5)C(=O)N23)cc1 (stereo not drawn)
- AC50 [1]: 0.282 µM [rising, partial curve, poor fit]
- AC50 [2]: 1.12 µM [rising, full curve, poor fit]

Compound: Cc1nc2ccc(S(=O)(=O)Nc3cc(-c4nc5cccnc5s4)ccc3C)cc2s1
- AC50 [2]: 10 µM [rising, partial curve]

Compound: COc1ccc2cc(Br)ccc2c1CC(=O)NC(C)(C)C
- AC50 [1]: 22.4 µM [rising, single point]
- AC50 [2]: 15.8 µM [rising, single point]

Compound: C=CCN1C(=O)C(Cc2ccccc2)SC1=Nc1ccc(C(=O)O)cc1 (stereo not drawn)
- AC50 [2]: 0.0501 µM [falling, full curve, poor fit]

Compound: CCOC(=O)CS(=O)(=O)c1nc(-c2ccc(F)cc2)cc(C(F)(F)F)n1
- AC50 [2]: 25.1 µM [rising, single point]

Compound: Cc1ccc(C)c(N2CCN(S(=O)(=O)c3ccc4c(c3)OCCO4)CC2)c1
- AC50 [2]: 12.6 µM [rising, single point]

Compound: COc1cc(/C=C/[N+](=O)[O-])ccc1OCc1cccc(C(=O)O)c1
- AC50 [1]: 14.1 µM [falling, single point]
- AC50 [2]: 31.6 µM [rising, single point]

Compound: COc1cc(Nc2ncc3c(n2)CCN(Cc2cc(F)cc(F)c2)C3)cc(OC)c1
- AC50 [2]: 5.62 µM [rising, single point]

Compound: CCNC(=O)c1c(NC(=O)c2cc(-c3cc(C)ccc3O)n[nH]2)sc2c1CCCC2
- AC50 [1]: 0.0251 µM [rising, full curve]
- AC50 [2]: 0.0158 µM [rising, full curve, poor fit]

Compound: Cc1[nH]nc2c1C(c1cccc(O)c1)C1=C(CC(C)(C)CC1=O)N2 (stereo not drawn)
- AC50 [1]: 4.47 µM [falling, partial curve]
- AC50 [2]: 2.82 µM [falling, partial curve, poor fit]

Compound: O=S(=O)(NCCc1csc2nc(-c3ccc(F)cc3)nn12)c1ccc(Oc2ccccc2)cc1
- AC50 [2]: 0.708 µM [falling, partial curve]

Compound: COc1ccc(CNc2nc(-c3ccc(N(C)C)cc3)nc3ccccc23)c(OC)c1
- AC50 [1]: 11.2 µM [falling, partial curve]
- AC50 [2]: 11.2 µM [falling, partial curve]

Compound: COc1ccc(NC(=O)C2CCCN2S(=O)(=O)c2cccc3cccnc23)c(OC)c1 (stereo not drawn)
- AC50 [2]: 35.5 µM [rising, single point]

Compound: CCOC(=O)c1[nH]c(C)c(CCC(=O)Nc2ccc(Br)c(C)c2)c1C
- AC50 [1]: 1.26 µM [rising, full curve]

Compound: Cc1ccc(N2CC(NC(=O)C3CC3)CC2=O)cc1C (stereo not drawn)
- AC50 [1]: 0.00316 µM [falling, full curve, poor fit]

Compound: O=C(N=NC(=O)c1ccco1)c1ccc2c(O)n(N3C(=O)c4ccccc4C3=O)c(O)c2c1
- AC50 [2]: 1.78 µM [falling, partial curve]

Compound: OC1C(O)C(O)C(O)C(O)C1O (stereo not drawn)
- AC50 [2]: 10 µM [rising, partial curve, poor fit]

Compound: O=C(CSc1n[nH]c(-c2ccccc2O)n1)N1CCCc2ccccc21
- AC50 [1]: 35.5 µM [falling, single point]
- AC50 [2]: 35.5 µM [falling, single point]

Compound: CC(=O)N1C(=O)/C(=C2\SC(=S)N(NC(=O)c3ccc(O)cc3)C2=O)c2ccccc21
- AC50 [1]: 7.94 µM [falling, partial curve]
- AC50 [2]: 15.8 µM [falling, partial curve, poor fit]

Compound: O=C(COC(=O)c1ccc(Sc2ccccc2)c([N+](=O)[O-])c1)NC1CCS(=O)(=O)C1 (stereo not drawn)
- AC50 [1]: 12.6 µM [rising, single point]

Compound: O=C(c1ccc(S(=O)(=O)NCc2ccco2)cc1)N1CCCC1
- AC50 [2]: 0.794 µM [falling, full curve, poor fit]

Compound: CC(=O)Nc1ccc(S(=O)(=O)NC2(C(F)(F)F)C(=O)Nc3c2c(=O)[nH]c(=O)n3Cc2cccnc2)cc1 (stereo not drawn)
- AC50 [1]: 0.158 µM [falling, full curve, poor fit]
- AC50 [2]: 0.178 µM [falling, full curve]

Compound: COc1ccc(COc2cc(-c3cccc(OC)c3)nc3ccc(NC(=O)c4ccc(OC)cc4)cc23)cc1
- AC50 [1]: 4.47 µM [rising, full curve]
- AC50 [2]: 3.98 µM [rising, full curve]

Compound: CCCCNC(=S)NNC(=O)c1csc(C(C)C)c1
- AC50 [2]: 31.6 µM [rising, single point]

Compound: CCOC(=O)/C(C#N)=C\c1cc(C)n(-c2ccccc2)c1C
- AC50 [1]: 25.1 µM [rising, partial curve]

Compound: COc1ccc(Nc2ccnc(Nc3ccc(OC)cc3)n2)cc1
- AC50 [1]: 1 µM [rising, partial curve, poor fit]
- AC50 [2]: 12.6 µM [rising, partial curve]

Compound: CCOC(=O)c1cnc(N2CCN(c3ccc(C)cc3C)CC2)c2ccccc12
- AC50 [2]: 35.5 µM [rising, single point]

Compound: CCOC(=O)C1Cn2c(nc3c(c2=O)C2(CCCC2)Cc2ccccc2-3)S1 (stereo not drawn)
- AC50 [1]: 35.5 µM [rising, single point]
- AC50 [2]: 35.5 µM [rising, single point]

Compound: Cn1c(=O)c2c(SCC(=O)Nc3ccc(F)cc3F)nc(C3CCCC3)nc2n(C)c1=O
- AC50 [2]: 35.5 µM [falling, single point]

Compound: CCOCc1cnc(C)nc1NCC(=O)c1c(C)[nH]c2cc(C)ccc12
- AC50 [2]: 11.2 µM [rising, partial curve]

Compound: Cc1ccc(C)c(-n2c3nc(=O)[nH]c(=O)c-3cc3cc([N+](=O)[O-])ccc32)c1
- AC50 [1]: 28.2 µM [falling, single point]

Compound: C=CCNC(=S)Nc1cc(C)ccn1
- AC50 [1]: 35.5 µM [rising, partial curve]

Compound: Cc1sc2nc(CN(C(=O)c3cccs3)C3CCCC3)[nH]c(=O)c2c1C
- AC50 [1]: 12.6 µM [rising, partial curve, poor fit]
- AC50 [2]: 12.6 µM [rising, partial curve]

Compound: Cn1c(=O)c2[nH]c(Nc3ccccc3)nc2n(C)c1=O
- AC50 [2]: 11.2 µM [rising, single point]

Compound: N#CCSc1nc2cc(C(=O)N3CCC(C(N)=O)CC3)ccc2c2nc3ccccc3n12
- AC50 [1]: 8.91 µM [rising, partial curve]

Compound: CN(c1ccccc1)S(=O)(=O)c1ccc(Cl)c(C(=O)NCCc2c[nH]c3ccccc23)c1
- AC50 [1]: 3.55 µM [rising, full curve]
- AC50 [2]: 12.6 µM [rising, partial curve]

Compound: Cc1cc(C)nc(NC(=O)c2ccc([N+](=O)[O-])o2)n1
- AC50 [1]: 10 µM [falling, partial curve, poor fit]
- AC50 [2]: 14.1 µM [falling, partial curve]

Compound: C=CCn1c(SCc2nc3scc(-c4ccccc4)c3c(=O)[nH]2)nnc1-c1ccccc1F
- AC50 [2]: 17.8 µM [rising, single point]

Compound: COc1ccc(OC)c(/C=C/C(=O)OCC(=O)Nc2cccc(C(C)=O)c2)c1
- AC50 [1]: 35.5 µM [rising, single point]
- AC50 [2]: 11.2 µM [rising, partial curve, poor fit]

Compound: O=C(O)c1cc(-c2ccc(Cl)cc2)n(-c2ccc(Cl)cc2)n1
- AC50 [1]: 2.51 µM [rising, partial curve, poor fit]

Compound: CCCSC1=C(C#N)C(c2ccc(Cl)cc2Cl)CC(=O)N1 (stereo not drawn)
- AC50 [1]: 14.1 µM [rising, single point]
